{
  "source": "paper doi:10.1101/2021.10.12.462922",
  "about": "(bioRxiv, 2021)",
  "target": "T1, HMG20A, human, recombinant from insect cells (human), Q9NP66",
  "T1 chain": "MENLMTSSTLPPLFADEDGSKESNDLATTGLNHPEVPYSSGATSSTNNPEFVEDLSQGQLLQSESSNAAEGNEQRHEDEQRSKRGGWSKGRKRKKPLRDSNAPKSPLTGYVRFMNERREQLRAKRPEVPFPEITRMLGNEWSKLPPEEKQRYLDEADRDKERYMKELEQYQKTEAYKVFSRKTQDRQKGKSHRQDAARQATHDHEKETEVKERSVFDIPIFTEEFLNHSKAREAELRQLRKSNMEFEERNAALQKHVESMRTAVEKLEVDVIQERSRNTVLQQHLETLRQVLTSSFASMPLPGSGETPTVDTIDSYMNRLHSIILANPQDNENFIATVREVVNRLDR",
  "assay": "cross-linking",
  "conditions": "remark: other sources report otherwise",
  "note": "Results are given in words; binding and its absence hold for the method and conditions named. Some binding calls cover weakened binding; strength is not graded here.",
  "data": [
    {"binder": "HMG20A, human, recombinant from insect cells, Q9NP66 1-347 (protein) MENLMTSSTLPPLFADEDGSKESNDLATTGLNHPEVPYSSGATSSTNNPEFVEDLSQGQLLQSESSNAAEGNEQRHEDEQRSKRGGWSKGRKRKKPLRDSNAPKSPLTGYVRFMNERREQLRAKRPEVPFPEITRMLGNEWSKLPPEEKQRYLDEADRDKERYMKELEQYQKTEAYKVFSRKTQDRQKGKSHRQDAARQATHDHEKETEVKERSVFDIPIFTEEFLNHSKAREAELRQLRKSNMEFEERNAALQKHVESMRTAVEKLEVDVIQERSRNTVLQQHLETLRQVLTSSFASMPLPGSGETPTVDTIDSYMNRLHSIILANPQDNENFIATVREVVNRLDR", "values": [
      {"measurement": "binding", "value": "binds"}
    ]}
  ]
}
